Results: the supplement of paper PMC10849652
This is one part of the list.

The chains behind the UniProt entries cited, without tags or fusion partners. Where a name states a change or a piece, a line headed by the entry shows the natural chain unless it says otherwise.
UniProt P09525: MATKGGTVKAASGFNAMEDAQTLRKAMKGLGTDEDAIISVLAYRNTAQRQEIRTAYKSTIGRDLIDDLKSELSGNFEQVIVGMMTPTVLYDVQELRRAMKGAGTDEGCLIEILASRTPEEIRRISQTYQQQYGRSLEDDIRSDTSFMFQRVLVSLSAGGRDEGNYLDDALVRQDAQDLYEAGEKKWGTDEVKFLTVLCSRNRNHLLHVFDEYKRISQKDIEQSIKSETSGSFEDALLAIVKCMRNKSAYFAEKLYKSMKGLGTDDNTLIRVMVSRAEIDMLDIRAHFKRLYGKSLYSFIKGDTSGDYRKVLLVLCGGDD
UniProt O00203: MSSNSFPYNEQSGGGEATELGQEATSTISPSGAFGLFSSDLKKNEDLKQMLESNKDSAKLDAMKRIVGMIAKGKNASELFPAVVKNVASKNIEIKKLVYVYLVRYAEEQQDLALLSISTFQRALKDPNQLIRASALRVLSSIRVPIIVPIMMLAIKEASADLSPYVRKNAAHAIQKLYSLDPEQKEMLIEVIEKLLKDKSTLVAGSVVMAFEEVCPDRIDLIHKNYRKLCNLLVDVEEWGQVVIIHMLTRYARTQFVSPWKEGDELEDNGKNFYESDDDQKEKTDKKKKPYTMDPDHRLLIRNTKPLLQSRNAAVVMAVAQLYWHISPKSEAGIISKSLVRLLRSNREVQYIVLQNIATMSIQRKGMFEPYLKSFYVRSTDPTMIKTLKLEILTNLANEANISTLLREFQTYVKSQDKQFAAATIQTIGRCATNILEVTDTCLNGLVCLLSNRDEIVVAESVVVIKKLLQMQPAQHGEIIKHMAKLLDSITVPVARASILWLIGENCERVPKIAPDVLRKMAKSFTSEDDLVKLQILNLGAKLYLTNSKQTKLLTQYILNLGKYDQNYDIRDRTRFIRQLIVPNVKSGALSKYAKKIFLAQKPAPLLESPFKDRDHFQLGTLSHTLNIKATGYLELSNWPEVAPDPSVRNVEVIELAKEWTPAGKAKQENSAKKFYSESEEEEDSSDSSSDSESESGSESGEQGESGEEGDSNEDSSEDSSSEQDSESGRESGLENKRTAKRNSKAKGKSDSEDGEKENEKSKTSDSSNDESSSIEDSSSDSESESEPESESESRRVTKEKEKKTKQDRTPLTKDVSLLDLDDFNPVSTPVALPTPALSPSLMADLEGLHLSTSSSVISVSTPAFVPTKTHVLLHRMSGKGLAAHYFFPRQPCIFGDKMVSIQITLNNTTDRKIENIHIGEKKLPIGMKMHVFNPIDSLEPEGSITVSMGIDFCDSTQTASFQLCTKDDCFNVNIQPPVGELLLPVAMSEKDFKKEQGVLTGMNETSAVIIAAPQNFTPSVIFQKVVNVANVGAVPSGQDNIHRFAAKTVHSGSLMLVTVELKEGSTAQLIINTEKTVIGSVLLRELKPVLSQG
UniProt Q9H0R1: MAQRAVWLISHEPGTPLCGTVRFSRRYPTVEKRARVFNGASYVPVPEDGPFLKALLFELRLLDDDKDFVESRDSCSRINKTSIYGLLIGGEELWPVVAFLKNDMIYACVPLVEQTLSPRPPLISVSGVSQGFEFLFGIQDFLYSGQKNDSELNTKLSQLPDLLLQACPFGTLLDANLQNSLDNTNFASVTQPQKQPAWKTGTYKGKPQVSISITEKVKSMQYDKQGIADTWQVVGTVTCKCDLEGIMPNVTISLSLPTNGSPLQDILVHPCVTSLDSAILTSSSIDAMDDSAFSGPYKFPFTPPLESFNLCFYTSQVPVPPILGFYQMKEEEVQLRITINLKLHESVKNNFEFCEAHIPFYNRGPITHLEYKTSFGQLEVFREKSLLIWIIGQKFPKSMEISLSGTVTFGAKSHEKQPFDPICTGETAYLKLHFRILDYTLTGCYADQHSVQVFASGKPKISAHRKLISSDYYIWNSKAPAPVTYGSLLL
UniProt Q13017, whole entry, looked up: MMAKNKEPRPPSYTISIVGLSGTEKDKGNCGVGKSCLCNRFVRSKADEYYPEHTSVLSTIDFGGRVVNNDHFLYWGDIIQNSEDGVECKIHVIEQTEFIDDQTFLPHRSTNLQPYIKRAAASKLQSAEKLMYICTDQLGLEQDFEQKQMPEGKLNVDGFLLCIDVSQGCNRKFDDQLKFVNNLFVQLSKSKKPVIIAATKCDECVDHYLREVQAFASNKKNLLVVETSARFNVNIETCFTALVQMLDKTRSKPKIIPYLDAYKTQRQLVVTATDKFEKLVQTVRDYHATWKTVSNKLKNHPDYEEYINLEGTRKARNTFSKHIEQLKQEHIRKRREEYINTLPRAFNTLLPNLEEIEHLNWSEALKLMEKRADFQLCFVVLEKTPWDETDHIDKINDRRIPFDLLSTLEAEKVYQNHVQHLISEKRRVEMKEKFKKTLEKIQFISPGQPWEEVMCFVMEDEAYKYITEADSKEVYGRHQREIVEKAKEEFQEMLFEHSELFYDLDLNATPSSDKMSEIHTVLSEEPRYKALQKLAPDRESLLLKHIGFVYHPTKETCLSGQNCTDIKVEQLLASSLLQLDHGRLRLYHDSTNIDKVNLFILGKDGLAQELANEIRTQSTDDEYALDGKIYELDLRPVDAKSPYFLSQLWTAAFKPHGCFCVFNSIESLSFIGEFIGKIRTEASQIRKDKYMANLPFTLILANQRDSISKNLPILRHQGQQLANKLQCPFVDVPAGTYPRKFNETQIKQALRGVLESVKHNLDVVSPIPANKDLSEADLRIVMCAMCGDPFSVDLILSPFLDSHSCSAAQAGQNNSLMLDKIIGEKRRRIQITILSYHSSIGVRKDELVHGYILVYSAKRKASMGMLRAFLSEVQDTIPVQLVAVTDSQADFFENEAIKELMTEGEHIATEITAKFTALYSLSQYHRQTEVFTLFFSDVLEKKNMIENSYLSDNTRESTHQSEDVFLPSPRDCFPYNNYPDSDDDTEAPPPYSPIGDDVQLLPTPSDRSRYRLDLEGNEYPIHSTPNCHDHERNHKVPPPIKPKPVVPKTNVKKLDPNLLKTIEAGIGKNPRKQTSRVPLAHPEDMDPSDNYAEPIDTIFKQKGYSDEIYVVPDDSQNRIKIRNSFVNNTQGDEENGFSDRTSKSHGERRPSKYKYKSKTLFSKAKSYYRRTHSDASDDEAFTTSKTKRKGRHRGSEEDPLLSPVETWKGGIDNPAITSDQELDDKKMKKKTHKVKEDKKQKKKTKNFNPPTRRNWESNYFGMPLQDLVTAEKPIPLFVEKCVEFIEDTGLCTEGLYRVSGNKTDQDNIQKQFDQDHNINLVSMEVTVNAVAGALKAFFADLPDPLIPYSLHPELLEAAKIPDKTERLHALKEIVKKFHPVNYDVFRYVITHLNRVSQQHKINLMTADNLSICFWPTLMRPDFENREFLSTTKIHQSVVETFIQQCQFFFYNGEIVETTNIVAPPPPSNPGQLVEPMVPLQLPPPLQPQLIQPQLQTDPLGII
UniProt Q5T5U3: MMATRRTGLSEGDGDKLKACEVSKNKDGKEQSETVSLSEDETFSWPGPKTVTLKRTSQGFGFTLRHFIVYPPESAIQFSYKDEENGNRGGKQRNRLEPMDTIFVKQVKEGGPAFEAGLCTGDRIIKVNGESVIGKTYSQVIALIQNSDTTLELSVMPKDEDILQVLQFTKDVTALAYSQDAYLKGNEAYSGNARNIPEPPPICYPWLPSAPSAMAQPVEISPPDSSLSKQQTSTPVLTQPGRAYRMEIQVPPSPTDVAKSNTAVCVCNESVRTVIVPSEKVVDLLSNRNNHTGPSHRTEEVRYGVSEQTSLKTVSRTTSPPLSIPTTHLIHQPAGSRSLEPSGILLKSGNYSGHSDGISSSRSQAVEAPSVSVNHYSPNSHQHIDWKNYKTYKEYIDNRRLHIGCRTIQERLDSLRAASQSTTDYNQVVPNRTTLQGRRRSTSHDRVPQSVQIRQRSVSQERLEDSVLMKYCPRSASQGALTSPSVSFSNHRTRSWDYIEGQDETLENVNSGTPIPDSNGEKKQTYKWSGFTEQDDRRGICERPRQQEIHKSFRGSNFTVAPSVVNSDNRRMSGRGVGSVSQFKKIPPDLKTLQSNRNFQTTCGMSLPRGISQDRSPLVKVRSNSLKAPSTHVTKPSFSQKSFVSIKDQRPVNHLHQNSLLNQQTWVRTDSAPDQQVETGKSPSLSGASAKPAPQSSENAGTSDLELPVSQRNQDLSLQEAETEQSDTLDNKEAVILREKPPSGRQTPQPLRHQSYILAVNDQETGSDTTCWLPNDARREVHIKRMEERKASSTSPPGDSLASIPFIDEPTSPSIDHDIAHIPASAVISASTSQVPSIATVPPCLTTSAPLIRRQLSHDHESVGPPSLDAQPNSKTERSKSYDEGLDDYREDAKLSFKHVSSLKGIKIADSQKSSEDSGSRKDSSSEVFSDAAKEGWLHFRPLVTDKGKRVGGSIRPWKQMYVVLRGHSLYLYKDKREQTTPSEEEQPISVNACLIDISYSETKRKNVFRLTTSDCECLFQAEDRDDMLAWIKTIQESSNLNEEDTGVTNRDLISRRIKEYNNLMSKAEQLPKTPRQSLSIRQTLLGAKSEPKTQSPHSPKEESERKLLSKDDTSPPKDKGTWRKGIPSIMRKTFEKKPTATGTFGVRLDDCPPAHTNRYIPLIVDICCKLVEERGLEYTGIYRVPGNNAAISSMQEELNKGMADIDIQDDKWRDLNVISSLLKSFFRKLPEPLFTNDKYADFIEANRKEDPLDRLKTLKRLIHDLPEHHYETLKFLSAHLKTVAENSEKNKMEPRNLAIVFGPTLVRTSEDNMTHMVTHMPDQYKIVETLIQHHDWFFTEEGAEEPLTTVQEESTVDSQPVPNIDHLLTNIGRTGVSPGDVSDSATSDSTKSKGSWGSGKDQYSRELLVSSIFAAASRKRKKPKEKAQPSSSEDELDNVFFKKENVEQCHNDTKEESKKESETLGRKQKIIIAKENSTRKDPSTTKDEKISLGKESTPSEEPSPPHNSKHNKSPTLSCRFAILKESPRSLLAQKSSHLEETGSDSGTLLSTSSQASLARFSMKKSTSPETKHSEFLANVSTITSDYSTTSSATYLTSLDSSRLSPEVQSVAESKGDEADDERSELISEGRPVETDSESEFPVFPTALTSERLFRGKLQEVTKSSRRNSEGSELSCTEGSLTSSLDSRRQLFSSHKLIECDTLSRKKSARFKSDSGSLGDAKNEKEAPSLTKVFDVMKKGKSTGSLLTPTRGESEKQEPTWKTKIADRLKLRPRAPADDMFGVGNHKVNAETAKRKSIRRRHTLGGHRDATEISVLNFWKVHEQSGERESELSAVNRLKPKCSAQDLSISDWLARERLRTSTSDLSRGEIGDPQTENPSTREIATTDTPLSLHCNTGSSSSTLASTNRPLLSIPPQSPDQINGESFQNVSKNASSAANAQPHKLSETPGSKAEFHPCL
UniProt Q9NQW6: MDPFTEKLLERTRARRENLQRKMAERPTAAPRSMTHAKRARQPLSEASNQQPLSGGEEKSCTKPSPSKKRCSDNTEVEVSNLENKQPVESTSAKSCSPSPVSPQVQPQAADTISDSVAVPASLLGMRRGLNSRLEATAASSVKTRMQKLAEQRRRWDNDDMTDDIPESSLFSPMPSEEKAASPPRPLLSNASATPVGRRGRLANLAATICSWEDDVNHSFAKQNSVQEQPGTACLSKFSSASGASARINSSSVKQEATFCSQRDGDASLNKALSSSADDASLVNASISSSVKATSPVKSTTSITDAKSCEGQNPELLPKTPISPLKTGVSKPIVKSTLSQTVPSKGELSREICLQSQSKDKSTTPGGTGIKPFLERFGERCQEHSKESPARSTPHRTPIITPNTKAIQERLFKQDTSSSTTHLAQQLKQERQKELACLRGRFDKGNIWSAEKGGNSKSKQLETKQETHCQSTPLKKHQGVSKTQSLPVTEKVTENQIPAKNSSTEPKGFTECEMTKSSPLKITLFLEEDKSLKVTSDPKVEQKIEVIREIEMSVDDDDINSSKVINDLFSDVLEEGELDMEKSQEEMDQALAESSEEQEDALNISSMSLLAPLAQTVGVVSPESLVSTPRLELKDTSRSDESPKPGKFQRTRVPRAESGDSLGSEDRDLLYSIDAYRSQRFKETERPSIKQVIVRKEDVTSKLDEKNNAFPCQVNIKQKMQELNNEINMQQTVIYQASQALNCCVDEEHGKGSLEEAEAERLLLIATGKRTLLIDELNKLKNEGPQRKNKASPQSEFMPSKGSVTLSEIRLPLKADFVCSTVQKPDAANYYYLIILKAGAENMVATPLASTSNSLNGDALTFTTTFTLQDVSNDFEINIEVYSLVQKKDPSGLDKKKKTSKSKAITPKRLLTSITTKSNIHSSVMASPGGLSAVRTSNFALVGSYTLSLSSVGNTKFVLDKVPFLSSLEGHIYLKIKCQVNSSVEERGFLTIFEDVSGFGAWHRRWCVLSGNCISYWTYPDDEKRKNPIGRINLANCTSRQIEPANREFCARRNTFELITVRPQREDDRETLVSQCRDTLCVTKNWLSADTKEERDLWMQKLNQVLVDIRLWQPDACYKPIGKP

Columns and labels:
Experiment in all cases: log2 fold change, soluble protein after heating vs DMSO (PISA); higher = thermal stabilisation; K562 cells, 10 uM, 30 min; active = over 0.2 and 3.5 SD of the protein, either way, in both replicates (recomputed)
[1] = compound: C#Cc1cccc(Nc2ncnc3cc(OCCOC)c(OCCOC)cc23)c1 [erlotinib]
Method in brief: (§1)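 K562 cells at 2×10^6 cells/mL were treated for 30 min with 10 μM compound, and aliquots were heated for 3 min over 48°C-58°C before pooling. Extraction used PBS with 0.5% NP-40 at 4°C, and soluble protein was the supernatant after 21,000xg for 90 min, measured by TMTpro 16plex LC-MS/MS with channel sums equalised. Thermal stability values, relative to control samples and from duplicates, are log2 fold changes.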

[2] = compound: C/C(=N\NC(=O)C1=CC(=CC=C1)S(=O)(=O)N2CCOCC2)/C3=C(C=CC(=C3)Cl)O
Method in brief: as §1

[3] = compound: C1=CC(=C(C=C1Cl)C2=NC3=NC=CN=C3C(=N2)NC4=CC=NC=C4)F
Method in brief: as §1

[4] = compound: C1=CC(=CC=C1C2=NC3=C(N2)C=C(C=C3)C(=O)N)OC4=CC=C(C=C4)Cl
Method in brief: as §1

[5] = compound: C1=CC2=C(C=CC(=C2)/C=C\3/C(=O)NC(=NCC4=CC=CS4)S3)N=C1
Method in brief: as §1

[6] = compound: C1=CC2=NC=CN=C2C=C1/C=C/3\C(=O)NC(=O)S3
Method in brief: as §1

[7] = compound: C1=CC=C(C=C1)C2=NC(=C(N2)C3=CC=NC=C3)C4=CC(=C(C=C4)Cl)O
Method in brief: as §1

[8] = compound: C1=CC=C2C(=C1)C3=NNC4=CC=CC(=C43)C2=O
Method in brief: as §1

[9] = compound: C1CCN(C1)C(=O)NC2=CC=CC(=C2)NC3=NC=C(C(=N3)NCCC4=CN=CN4)Br
Method in brief: as §1

[10] = compound: C1CN(CCC1(CC2=CC=C(C=C2)Cl)N)C3=NC=NC4=C3C=CN4
Method in brief: as §1

Measured: log2 fold change

ANXA4 (UniProt P09525)
inactive: [1] 0.05 | [2] 0.058 | [3] 0.061 | [4] 0.021 | [5] 0.1 | [6] -0.029 | [7] 0.022 | [8] -0.005 | [9] -0.016 | [10] -0.032

APOBEC3D (UniProt Q96AK3)
inactive: [1] -0.021 | [2] -0.133 | [3] -0.301 | [4] -0.014 | [5] 0.019 | [6] -0.093 | [7] 0.034 | [8] -0.06 | [9] -0.037 | [10] -0.029

ANK3 (UniProt Q12955)
inactive: [1] 0.102 | [2] -0.017 | [3] -0.002 | [4] -0.016 | [5] -0.153 | [6] -0.072 | [7] -0.066 | [8] 0.071 | [9] -0.083 | [10] -0.047

AP5Z1 (UniProt O43299)
inactive: [1] 0.239 | [2] -0.062 | [3] 0.064 | [4] 0.025 | [5] 0.243 | [6] -0.041 | [7] -0.124 | [8] -0.038 | [9] 0.233 | [10] 0.077

ARF4 (UniProt P18085)
inactive: [1] -0.029 | [2] 0.033 | [3] 0.093 | [4] -0.007 | [5] 0.006 | [6] -0.016 | [7] 0.093 | [8] 0.039 | [9] -0.015 | [10] -0.021

ARHGEF18 (UniProt Q6ZSZ5)
inactive: [1] 0.121 | [2] 0.002 | [3] 0.06 | [4] -0.089 | [5] 0.064 | [6] -0.013 | [7] 0.069 | [8] 0.073 | [9] -0.066 | [10] -0.14

ANKRD28 (UniProt O15084)
inactive: [1] -0.023 | [2] 0.013 | [3] 0.044 | [4] -0.007 | [5] 0.028 | [6] 0.006 | [7] 0.038 | [8] -0.049 | [9] 0.007 | [10] -0.009

ARHGAP1 (UniProt Q07960)
inactive: [1] -0.039 | [2] 0.014 | [3] 0.025 | [4] 0.021 | [5] 0.038 | [6] 0.021 | [7] 0.021 | [8] -0.011 | [9] 0.002 | [10] 0.019

ANKRD13A (UniProt Q8IZ07)
inactive: [1] -0.038 | [2] 0.012 | [3] -0.039 | [4] 0.02 | [5] 0.038 | [6] -0.046 | [7] -0.01 | [8] -0.001 | [9] 0.017 | [10] -0.035

ANKMY2 (UniProt Q8IV38)
inactive: [1] 0.01 | [2] 0.047 | [3] 0.044 | [4] 0.009 | [5] 0.005 | [6] 0.014 | [7] 0 | [8] 0.002 | [9] -0.024 | [10] -0.028

ARF6 (UniProt P62330)
inactive: [1] 0.035 | [2] 0.034 | [3] 0.018 | [4] -0.042 | [5] -0.08 | [6] 0.038 | [7] 0.067 | [8] -0.008 | [9] -0.028 | [10] 0.058

ANXA1 (UniProt P04083)
inactive: [1] 0.043 | [2] 0.1 | [3] 0.138 | [4] -0.05 | [5] 0.004 | [6] 0.001 | [7] 0.05 | [8] 0.058 | [9] 0.026 | [10] -0.097

ARIH1 (UniProt Q9Y4X5)
inactive: [1] 0 | [2] -0.04 | [3] 0.082 | [4] -0.026 | [5] 0.051 | [6] 0.007 | [7] -0.038 | [8] -0.041 | [9] 0.008 | [10] 0.036

APRT (UniProt P07741)
inactive: [1] 0.021 | [2] -0.005 | [3] 0.072 | [4] -0.005 | [5] 0.082 | [6] 0.008 | [7] -0.032 | [8] -0.013 | [9] 0.012 | [10] 0.012

Quoted from the entries so far (2 entries):
APOBEC3D (UniProt Q96AK3)
inactive: [1] -0.021 | [2] -0.133 | [3] -0.301 | [4] -0.014 | [5] 0.019 | [6] -0.093 | [7] 0.034 | [8] -0.06 | [9] -0.037 | [10] -0.029

ANK3 (UniProt Q12955)
inactive: [1] 0.102 | [2] -0.017 | [3] -0.002 | [4] -0.016 | [5] -0.153 | [6] -0.072 | [7] -0.066 | [8] 0.071 | [9] -0.083 | [10] -0.047

More entries follow.

APEX1 (UniProt P27695)
inactive: [1] -0.014 | [2] 0.027 | [3] 0.041 | [4] 0.004 | [5] 0.03 | [6] 0.007 | [7] 0.045 | [8] 0 | [9] 0.088 | [10] -0.071

ANXA2 isoform 2 (UniProt P07355)
inactive: [1] -0.032 | [2] 0.076 | [3] 0.069 | [4] -0.015 | [5] -0.041 | [6] -0.024 | [7] 0.066 | [8] 0.037 | [9] -0.027 | [10] 0.007

AP3B1 (UniProt O00203)
inactive: [1] 0.008 | [2] 0.072 | [3] 0.024 | [4] -0.014 | [5] 0.061 | [6] 0.014 | [7] 0.07 | [8] 0.023 | [9] -0.014 | [10] -0.009

ANXA3 (UniProt P12429)
inactive: [1] -0.019 | [2] 0.049 | [3] 0.014 | [4] 0 | [5] 0.081 | [6] 0.035 | [7] -0.023 | [8] 0.016 | [9] -0.007 | [10] 0.081

AP1S1 (UniProt P61966)
inactive: [1] 0.009 | [2] 0.07 | [3] 0 | [4] -0.013 | [5] 0.006 | [6] 0.054 | [7] -0.022 | [8] -0.017 | [9] 0.086 | [10] -0.088

ANXA11 (UniProt P50995)
inactive: [1] 0.018 | [2] 0.094 | [3] 0.068 | [4] -0.029 | [5] 0.048 | [6] -0.013 | [7] 0.042 | [8] 0.079 | [9] 0 | [10] -0.028

APOD (UniProt P05090)
inactive: [1] 0.207 | [2] -0.003 | [4] -0.477 | [5] 0.037 | [8] -0.361 | [9] -0.12 | [10] 0.045

AP3M2 (UniProt P53677)
inactive: [1] 0.028 | [4] -0.247 | [6] 0.021

ARHGAP6 (UniProt O43182)
inactive: [2] 0.34 | [3] -0.254 | [5] -0.208 | [7] -0.07 | [8] -0.153 | [9] -0.034 | [10] -0.147

AP5S1 (UniProt Q9NUS5)
inactive: [1] -0.008 | [4] 0.109

ARAP1 (UniProt Q96P48)
inactive: [3] -0.184 | [6] 0 | [7] 0.013 | [9] -0.14 | [10] -0.622

APP (UniProt P05067)
inactive: [1] 0.092 | [3] -0.21 | [4] -0.029 | [7] -0.05 | [9] -0.15 | [10] -0.025

ARHGEF10 (UniProt O15013)
inactive: [6] 0.029

AP1G2 (UniProt O75843)
inactive: [1] 0.028 | [4] -0.018 | [7] -0.249

ANKRD36 (UniProt A6QL64)
inactive: [3] -0.124 | [9] 0.17 | [10] -0.1

AP5M1 (UniProt Q9H0R1)
inactive: [3] -0.194 | [6] -0.047 | [7] -0.2

AP2S1 (UniProt M0QZ21)
inactive: [9] -0.625 | [10] 0.21

ARHGAP5 (UniProt Q13017)
inactive: [1] -0.154 | [3] 0.007 | [4] -0.167 | [6] -0.219 | [7] 0.109 | [9] 0 | [10] -0.253

ARHGAP21 (UniProt Q5T5U3)
inactive: [3] -0.236 | [6] -0.283 | [7] -0.221

ANKRD11 (UniProt Q6UB99)
inactive: [1] -0.094 | [4] -0.019 | [6] 0.001 | [7] -0.271

ANLN (UniProt Q9NQW6)
inactive: [1] 0.006 | [3] -0.027 | [4] -0.121 | [6] -0.227 | [7] -0.188
